# Assay results published in US20260226101A1 (priority 2023, published 2026).
# Ends that are not written are not given here.
# Assay: general procedure: Fmoc solid-phase peptide synthesis
# Conditions: whole synthesis, 215 nm, scale of the general procedure 0.1-10 mmol, >10-200 mmol
substance,measurement,value
FAKKFAK,final HPLC purity,99.2%
